Assay results as given in paper PMC7826247.
These are yes or no findings as the source states them, for the method shown. In cells and extracts the contact can be indirect. Binding can be weak; no strength is given. Where a sequence is shown, tags or fusion partners need not be part of it.

Key:
[1] = molecular target: Gcr1^S-TAP (S. cerevisiae); experiment: co-IP; in vivo TAP pull-down: 800 ug of yeast lysate protein (50 mM Tris-HCl pH 7.5, 150 mM NaCl, 2 mM MgCl2, 0.1% NP40) on IgG Sepharose for 1 h, three washes; Gcr2-5Flag detected by anti-Flag immunoblot, Gcr1-TAP by IgG
[2] = molecular target: Gcr1^U-TAP (S. cerevisiae); experiment: as above

binding [1]: binds | binding [2]: binds
B1: Gcr2-5Flag (protein, UniProt Q01722 1-534)
chain: MHHQTKLDVFIIRAYNLLSNESVISGASLQSVTNSPQTTTNTPSGMVNGAVGTGIANPTGLMGSDSTPNIDEIITSTGSNALTKTNSDSANGTPNGNSSSTSAISNASNPATTGNNASSSATSNGIYTQAQYSQLFAKISKLYNATLSSGSIDDRSTSPKSAIELYQRFQQMIKELELSFDASPYAKYFRRLDGRLWQIKTDSELENDELWRLVSMSIFTVFDPQTGQILTQGRRKGNSLNTSTKGSPSDLQGINNGNNNGNNGNIGNGSNIKNYGNKNMPNNRTKKRGTRVAKNAKNGKNNKNSNKERNGITDTSAFSNTTISNPGTNMLFDPSLSQQLQKRLQTLSQDVNSRSLTGYYTQPTSPGSGGFEFGLSHADLNPNASSNTMGYNTMSNNGSHSWKRRSLGSLDVNTLDDEAVEELLQLTNTSKRQRPMTTAAEGALINDGPDTNLNANNTQMKVDLNPSNSMGPIDTEAVIRPLKEAYDAIISEKGQRIVQLERELELQRQETQWLRKMLIEDMGCVRSMLRDLQR
